Reference: patent US4016259A (Research Corporation, priority 1975, dated 1977)

Columns and labels:
[1] = general procedure: Boc solid-phase peptide synthesis; polystyrene divinyl benzene chloromethyl resin, 2.2 mmoles of chloride per gram; DCC; conditions: whole synthesis, based on Lys, scale 0.45 mmol, diacetate salt converted to sodium salt
[2] = general procedure: Boc solid-phase peptide synthesis; chloromethyl-resin; DCC; conditions: whole synthesis, scale 0.45 mmol, diacetate salt converted to sodium salt

With Thr-Pro-Arg-Lys the crude yield [1] was 78% and the crude mass [2] was 176 mg.
